# Measured values taken from patent US20050245563A1 (Millennium Pharmaceuticals, Inc., priority 2003, published 2005).
# Some of these results come from one statement about several compounds together.
# Molecular target: T1, human Chk1 (GST-Chk1) (Homo sapiens, UniProt O14757)
# T1 construct: made in house; host or cells: insect cells (baculovirus, Bac-to-Bac)
# T1 sequence (O14757 1-476): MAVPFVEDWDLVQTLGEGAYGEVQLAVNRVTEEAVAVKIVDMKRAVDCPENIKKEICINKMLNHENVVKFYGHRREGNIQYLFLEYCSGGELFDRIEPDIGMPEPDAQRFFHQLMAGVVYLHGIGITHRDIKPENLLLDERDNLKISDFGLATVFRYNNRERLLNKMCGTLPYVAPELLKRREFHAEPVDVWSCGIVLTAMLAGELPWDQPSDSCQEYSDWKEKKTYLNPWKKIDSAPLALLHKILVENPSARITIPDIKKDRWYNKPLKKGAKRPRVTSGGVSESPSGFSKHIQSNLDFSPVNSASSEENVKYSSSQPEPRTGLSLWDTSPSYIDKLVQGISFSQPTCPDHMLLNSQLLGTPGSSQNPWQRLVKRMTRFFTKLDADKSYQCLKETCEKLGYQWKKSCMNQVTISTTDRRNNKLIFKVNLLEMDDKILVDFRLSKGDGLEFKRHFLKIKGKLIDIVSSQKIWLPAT
# Assay: Chk1 FlashPlate kinase assay
# Type: biochemical
# Details: 8.7 nM GST-Chk1, 1 uM ATP, 33P incorporation into peptide substrate
# Description: Recombinant human Chk1 was expressed as a fusion protein with glutathione S-transferase at the amino-terminus (GST-Chk1) using standard baculovirus vectors and (Bac-to-Bac®) insect cell expression system purchased from GIBCO™ Invitrogen. Recombinant protein expressed in insect cells was purified using glutathione sepharose (Amersham Biotech) using standard procedures described by the manufacturer.
# Chk1 FlashPlate® Kinase Assay:
# Assays (25 μL) contained 8.7 nM GST-Chk1, 10 mM MES, 0.1 mM ethylene glycol-bis(β-aminoethylether)-N,N,N′,N′-tetracetic acid (EGTA, pH 8.0), 2 mM DTT, 0.05% Tween 20, 3 uM peptide substrate (Biotin-ILSRRPSYRKILND-free acid) (SEQ ID NO: 1), 1 uM ATP, 0.4 uCi ^33P-γ-ATP (NEN), 4% DMSO. Reactions were incubated for 30 minutes at room temperature, terminated with 50 μL of 50 mM EDTA and 90 μL were transferred to streptavidin-coated FlashPlates® (NEN) and incubated for 1 hour at room temperature. Plates were washed with phosphate buffered salaine containing 0.01% Tween-20 and 10 mM sodium pyrophosphate. Plates were dried, sealed with Topseal™ (NEN) and amount of ^33P incorporated into the peptide substate measure using a Packard Topcount® NXT™ scintillation counter with standard settings.
row,Structure (SMILES),IC50 [nM]
1,"Cc1[nH]nc2c1c(=O)n(CCCN)c1cc(F)ccc21 [Compound 168, 5-(3-Amino-propyl)-7-fluoro-3-methyl-2,5-dihydro-pyrazolo[4,3-c]quinolin-4-one]",< 1000
2,"Cc1[nH]nc2c1c(=O)n(CCCN)c1ccc(OC(F)(F)F)cc21 [Compound 169, 5-(3-Amino-propyl)-3-methyl-8-trifluoromethoxy-2,5-dihydro-pyrazolo[4,3-c]quinolin-4-one]",< 1000
3,"NCCCn1c(=O)c2c(C3CC3)[nH]nc2c2cc(Cl)ccc21 [Compound 170, 5-(3-Amino-propyl)-8-chloro-3-cyclopropyl-2,5-dihydro-pyrazolo[4,3-c]quinolin-4-one]",< 1000
4,"NCCCn1c(=O)c2c(CO)[nH]nc2c2cc(Cl)ccc21 [Compound 171, 5-(3-Amino-propyl)-8-chloro-3-hydroxymethyl-2,5-dihydro-pyrazolo[4,3-c]quinolin-4-one]",< 1000
5,"COCc1[nH]nc2c1c(=O)n(CCCN)c1ccc(Cl)cc21 [Compound 172, 5-(3-Amino-propyl)-8-chloro-3-methoxymethyl-2,5-dihydro-pyrazolo[4,3-c]quinolin-4-one]",< 1000
6,"COCCc1[nH]nc2c1c(=O)n(CCCN(C)C)c1ccc(Cl)cc21 [Compound 173, 8-Chloro-5-(3-dimethylamino-propyl)-3-(2-methoxy-ethyl)-2,5-dihydro-pyrazolo[4,3-c]quinolin-4-one]",< 1000
7,"Cc1[nH]nc2c1c(=O)n(CC(C)(C)CN(C)C)c1ccc(Cl)cc21 [Compound 174, 8-Chloro-5-(3-dimethylamino-2,2-dimethyl-propyl)-3-methyl-2,5-dihydro-pyrazolo[4,3-c]quinolin-4-one]",< 1000
8,"Cc1[nH]nc2c1c(=O)n(CCCn1ccnc1)c1ccc(Cl)cc21 [Compound 175, 8-Chloro-5-(3-imidazol-1-yl-propyl)-3-methyl-2,5-dihydro-pyrazolo[4,3-c]quinolin-4-one]",< 1000
9,"Cc1[nH]nc2c1c(=O)n(CCCNC(=O)c1ccc(Cl)cc1)c1ccc(Br)cc21 [Compound 176, N-[3-(8-Bromo-3-methyl-4-oxo-2,4-dihydro-pyrazolo[4,3-c]quinolin-5-yl)-propyl]-4-chloro-benzamide]",< 1000
10,"COCCc1[nH]nc2c1c(=O)n(CCCNC(=O)c1ccc(Cl)cc1)c1ccc(Br)cc21 [Compound 177, N-{3-[8-Bromo-3-(2-methoxy-ethyl)-4-oxo-2,4-dihydro-pyrazolo[4,3-c]quinolin-5-yl]-propyl}-4-chloro-benzamide]",< 1000
11,"Cc1[nH]nc2c1c(=O)n(CCCNC(=O)Cc1ccccc1)c1ccc(Br)cc21 [Compound 178, N-[3-(8-Bromo-3-methyl-4-oxo-2,4-dihydro-pyrazolo[4,3-c]quinolin-5-yl)-propyl]-2-phenyl-acetamide]",< 1000
12,"Cc1[nH]nc2c1c(=O)n(CCCNC(=O)C1CCCCC1)c1ccc(Br)cc21 [Compound 179, Cyclohexanecarboxylic acid [3-(8-bromo-3-methyl-4-oxo-2,4-dihydro-pyrazolo[4,3-c]quinolin-5-yl)-propyl]-amide]",< 1000
13,"Cc1[nH]nc2c1c(=O)n(CCCNC(=O)c1ccncc1)c1ccccc21 [Compound 180, N-[3-(3-Methyl-4-oxo-2,4-dihydro-pyrazolo[4,3-c]quinolin-5-yl)-propyl]-isonicotinamide]",< 1000
14,"Cc1[nH]nc2c1c(=O)n(CCCNC(=O)C1CC1c1ccccc1)c1ccccc21 (stereo not shown) [Compound 181, 2-Phenyl-cyclopropanecarboxylic acid [3-(3-methyl-4-oxo-2,4-dihydro-pyrazolo[4,3-c]quinolin-5-yl)-propyl]-amide]",< 1000
15,"Cc1[nH]nc2c1c(=O)n(CCCN1CCOCC1)c1ccc(Cl)cc21 [Compound 182, 8-Chloro-3-methyl-5-(3-morpholin-4-yl-propyl)-2,5-dihydro-pyrazolo[4,3-c]quinolin-4-one]",< 1000
16,"Cc1[nH]nc2c1c(=O)n(CCCNC(=O)CC(N)c1ccc(Cl)cc1)c1ccccc21 (stereo not shown) [Compound 183, 3-Amino-3-(4-chloro-phenyl)-N-[3-(3-methyl-4-oxo-2,4-dihydro-pyrazolo[4,3-c]quinolin-5-yl)-propyl]-propionamide]",< 1000

row,Structure (SMILES),IC50 [nM]
1,"Cc1[nH]nc2c1c(=O)n(CCCNC(=O)[C@@H](N)Cc1ccc(F)c(F)c1)c1ccccc21 [Compound 184, 2S-Amino-3-(3,4-difluoro-phenyl)-N-[3-(3-methyl-4-oxo-2,4-dihydro-pyrazolo[4,3-c]quinolin-5-yl)-propyl]-propionamide]",< 1000
2,"Cc1[nH]nc2c1c(=O)n(CCCNC(=O)[C@@H](N)Cc1c[nH]cn1)c1ccccc21 [Compound 185, 2S-Amino-3-(1H-imidazol-4-yl)-N-[3-(3-methyl-4-oxo-2,4-dihydro-pyrazolo[4,3-c]quinolin-5-yl)-propyl]-propionamide]",< 1000
3,"Cc1[nH]nc2c1c(=O)n(CCCNC(=O)[C@@H](N)CC(C)C)c1ccccc21 [Compound 186, 2-Amino-4-methyl-pentanoic acid [3-(3-methyl-4-oxo-2,4-dihydro-pyrazolo[4,3-c]quinolin-5-yl)-propyl]-amide]",< 1000
4,"Cc1[nH]nc2c1c(=O)n(CCCNC(=O)[C@@H]1Cc3ccccc3CN1)c1ccccc21 [Compound 187, 1,2,3,4-Tetrahydro-isoquinoline-3-carboxylic acid [3-(3-methyl-4-oxo-2,4-dihydro-pyrazolo[4,3-c]quinolin-5-yl)-propyl]-amide]",< 1000
5,"Cc1[nH]nc2c1c(=O)n(CCCNC(=O)[C@@H](N)CC1CCCCC1)c1ccccc21 [Compound 188, 2-Amino-3-cyclohexyl-N-[3-(3-methyl-4-oxo-2,4-dihydro-pyrazolo[4,3-c]quinolin-5-yl)-propyl]-propionamide]",< 1000
6,"Cc1[nH]nc2c1c(=O)n(CCCNC(=O)[C@@H](N)CCc1ccccc1)c1ccccc21 [Compound 189, 2-Amino-N-[3-(3-methyl-4-oxo-2,4-dihydro-pyrazolo[4,3-c]quinolin-5-yl)-propyl]-4-phenyl-butyramide]",< 1000
7,"Cc1[nH]nc2c1c(=O)n(CCCNC(=O)C1(N)CCCCC1)c1ccccc21 [Compound 190, 1-Amino-cyclohexanecarboxylic acid [3-(3-methyl-4-oxo-2,4-dihydro-pyrazolo[4,3-c]quinolin-5-yl)-propyl]-amide]",< 1000
8,"Cc1[nH]nc2c1c(=O)n(CCCNC(=O)C(N)Cc1ccc(Cl)cc1)c1ccc(F)cc21 (stereo not shown) [Compound 191, 2-Amino-3-(4-chloro-phenyl)-N-[3-(8-fluoro-3-methyl-4-oxo-2,4-dihydro-pyrazolo[4,3-c]quinolin-5-yl)-propyl]-propionamide]",< 1000
9,"Cc1[nH]nc2c1c(=O)n(CCCN)c1ccc(N3CCOCC3)cc21 [Compound 192, 5-(3-Amino-propyl)-3-methyl-8-morpholin-4-yl-2,5-dihydro-pyrazolo[4,3-c]quinolin-4-one]",< 1000
10,"Cc1[nH]nc2c1c(=O)n(CCCN)c1ccc(N3CCN(C)CC3)cc21 [Compound 193, 5-(3-Amino-propyl)-3-methyl-8-(4-methyl-piperazin-1-yl)-2,5-dihydro-pyrazolo[4,3-c]quinolin-4-one]",< 1000
11,"C=Cc1[nH]nc2c1c(=O)n(CCCN)c1ccc(N3CCCC3)cc21 [Compound 194, 5-(3-Amino-propyl)-8-pyrrolidin-1-yl-3-vinyl-2,5-dihydro-pyrazolo[4,3-c]quinolin-4-one]",< 1000
12,"Cc1[nH]nc2c1c(=O)n(CCCC(N)=O)c1ccc(Br)cc21 [Compound 195, 4-(8-Bromo-3-methyl-4-oxo-2,4-dihydro-pyrazolo[4,3-c]quinolin-5-yl)-butyramide]",< 1000
13,"COC(=O)CCCCn1c(=O)c2c(C)[nH]nc2c2cc(Br)ccc21 [Compound 196, 5-(8-Bromo-3-methyl-4-oxo-2,4-dihydro-pyrazolo[4,3-c]quinolin-5-yl)-pentanoic acid methyl ester]",< 1000
14,"Cc1[nH]nc2c1c(=O)n(CCCCC(=O)O)c1ccc(Br)cc21 [Compound 197, 5-(8-Bromo-3-methyl-4-oxo-2,4-dihydro-pyrazolo[4,3-c]quinolin-5-yl)-pentanoic acid]",< 1000
15,"Cc1[nH]nc2c1c(=O)n(CCC(=O)NCc1ccc(Cl)cc1)c1ccc(Cl)cc21 [Compound 198, N-(4-Chloro-benzyl)-3-(8-chloro-3-methyl-4-oxo-2,4-dihydro-pyrazolo[4,3-c]quinolin-5-yl)-propionamide]",< 1000
